# Experimental data taken from paper PMC3428313.
# How the values were obtained:
# [1] = system: C/EBPbeta isoform LIP (Flag-LIP); test: EMSA supershift; conditions: anti-FLAG supershift; 20 mM HEPES pH 8.0, 1 mM MgCl2, 60 mM KCl, 0.1 mM EDTA, 15% glycerol, 1 ug poly dI-dC, 8 ug nuclear extract; 30 min room temperature then 15 min 4 C; gel at 4 C; protein in a lysate after overexpression; protein details: FLAG; label: 32P
# C/EBPbeta isoform LAP = test: EMSA supershift; conditions: anti-C/EBPbeta supershift or abrogation; 20 mM HEPES pH 8.0, 1 mM MgCl2, 60 mM KCl, 0.1 mM EDTA, 15% glycerol, 1 ug poly dI-dC, 8 ug nuclear extract; 30 min room temperature then 15 min 4 C; gel at 4 C; protein in a lysate after overexpression; label: 32P
sequence,measurement,setting,value
TGCAGATTGCGCAATCTGCA (double strand) [canonical C/EBP],binding result,[1],binds
same,binding result,C/EBPbeta isoform LAP,binds

# Construct, isoform or probe ends are uncertain for at least one entry. Where cells or extracts were used, other partners may take part.
